Screen size: about 340,000 compounds; about 170 (0.05%) were called active. The inconclusive results got no clear call from the source; some entries with a clear call stand among them for comparison. Calls follow the shape of the dose curve; as a rule, active = well fitted inhibition curve with a large enough effect in the signal ratio, with a control signal flat (not every such curve was filed as active); inconclusive = small, poorly fitted or top-dose-only effect, or effect the other way, or a change in a side signal; inactive = flat fitted curve, though single readings scatter; the % refers to the signal ratio. Where the call is inconclusive, the potency comes from a doubtful curve fit.
assay: qHTS Assay to Find Inhibitors of Chronic Active B-Cell Receptor Signaling; settings: ABC-DLBCL IkBa-CBG/CBR reporter, luminescence ratio (green luciferase fused to IkBa over red control in TMD8 lymphoma cells), 4 h; activity change, negative = inhibition: at 46.1 µM (top of the series);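 as to activity change, negative = inhibition: plate controls were basal doxycycline-induced cells for no effect and cells given 10 µM MG132 for full effect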
Outline: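 TMD8 ABC-DLBCL cells carrying doxycycline-inducible green luciferase fused to IkappaBalpha plus unfused red luciferase were exposed to compounds (up to 46 uM) for 4 hrs at 37C. Activity came from the overlap-corrected green/red luminescence ratio.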
Potency is read from the fitted curve at half-maximal effect.

| SMILES | activity change, negative = inhibition | Potency |
| --- | --- | --- |
| Cc1oc(-c2ccccc2F)nc1CS(=O)(=O)CC(=O)NCCCc1ccccc1 | inactive: 5.46% | – |
| Cc1ccc(NS(=O)(=O)c2ccc(C(=O)OCC(=O)Nc3cc(C)on3)cc2)cc1 | inactive: -3.63% | – |
| CCN(CC)S(=O)(=O)c1cccc(-c2n[nH]c(=S)n2Cc2ccccc2)c1 | inactive: 5.22% | – |
| Cc1cccc(-n2c(O)c(C=Nc3ccc4c(c3)OCO4)c3ccccc3c2=O)n1 | inconclusive: 4.69% | – |
| CCCSc1ccc2nc(-c3ccccc3)cn2c1 | – | inconclusive: 3.66 µM [rising, full curve] |
| O=C(CCS(=O)(=O)c1cccs1)Nc1ccc(C(=O)NCc2ccc(F)cc2)cc1 | inconclusive: 13.7% | – |
| C/C(=C\C(=O)c1ccc(C)o1)Nc1ccc2c(c1)OCO2 | inactive: 9.25% | – |
| COc1cccc(N/C=C/C(=O)c2ccc(OC)c(OC)c2)c1 | – | inconclusive: 17.8 µM [falling, single point] |
| COc1ccc(C(=O)N2CCC(n3nccc3NC(=O)C3CCOC3)CC2)cc1 (centres undefined) | inconclusive: -1.81% | – |
| CCN(CC)c1ccc(/C=N/Nc2cccc(C)c2)c(O)c1 | inconclusive: 6.15% | – |
| CC1(C)Cc2c(c(-c3ccco3)[nH]c(=O)c2C#N)CO1 | inconclusive: 18.1% | – |
| Cc1noc(C)c1CSc1ncnc2sc3c(c12)CCC3 | inconclusive: 7.75% | – |
| COc1ccc(Oc2cccc(Cl)c2CNC(=O)CCCC(=O)O)cc1 | inconclusive: 2.62% | – |
| Cc1ccc(-c2noc(CC(c3ccccc3)c3ccccc3)n2)cc1 | – | inconclusive: 16.4 µM [rising, partial curve, poor fit] |
| CCCCc1cc2ccccc2c(OCCN(C)C)n1 | inconclusive: 1.41% | – |
| CCN1CCc2nc(NC(=O)c3ccc4c(c3)OCCO4)sc2C1 | inconclusive: -7.81% | – |
| COc1ccccc1C(=O)NC(=O)COC(=O)c1cccc(NC(C)=O)c1 | – | inconclusive: 20 µM [falling, single point] |
| O=C(Oc1cccc(Nc2ncnc3ccccc23)c1)c1cccnc1 | – | inconclusive: 35.5 µM [falling, single point] |
| Cn1c(C(F)(F)F)nc2c(=O)oc3ccccc3c21 | – | inconclusive: 35.5 µM [falling, partial curve, poor fit] |
| O=C(Nc1cccc(NC(=O)c2ccco2)n1)c1ccco1 | inactive: -3.77% | – |
| CCC(=O)NCCc1sc2nc(-c3ccc(OC)cc3)nn2c1C | inconclusive: 1.9% | – |
| C/C(=N/Nc1nc(-c2ccccc2)c(CC(=O)O)s1)c1ccccc1 | inconclusive: 7.44% | – |
| O=C(C(NS(=O)(=O)c1cccs1)c1ccccc1)N1CCN(c2ccccc2F)CC1 (centres undefined) | inconclusive: 4.94% | – |
| Cc1ccc(C)c(Cn2nnc(C(=O)Nc3ccc4c(c3)OCCO4)c2N)c1 | inconclusive: -8.16% | – |
| CCC(C)C(=O)Nc1nnc(SCC(=O)Nc2ccccc2F)s1 (centres undefined) | inconclusive: 0.935% | – |
| CNC(=O)c1c(NC(=O)C2=COCCO2)sc2c1CCC(C)C2 (centres undefined) | inconclusive: 8.45% | – |
| CC(C)NC(=O)c1ccccc1NC(=O)CN(c1ccc2c(c1)OCO2)S(C)(=O)=O | inactive: 7.74% | – |

| SMILES | activity change, negative = inhibition | Potency |
| --- | --- | --- |
| Cc1cccc(N2CCN(C(=O)Cc3c(C(=O)O)c(C)cn3C)CC2C)c1 (centres undefined) | inactive: 3.97% | – |
| c1ccc(-c2noc(CSc3nnc(Cc4cccs4)n3-c3ccccc3)n2)cc1 | inconclusive: 0.119% | – |
| CN(C)S(=O)(=O)c1ccc(NC(=O)c2ccc3ncsc3c2)cc1 | – | inconclusive: 20 µM [falling, partial curve, poor fit] |
| CN(C)CCNC(=O)C(=O)Nc1ccc2c(c1)N(S(=O)(=O)c1cccs1)CCC2 | – | inconclusive: 29.1 µM [falling, single point] |
| O=C(COc1ccccc1)Nc1nc(-c2cccs2)cs1 | inactive: -0.0894% | – |
| O=C1NC(c2ccccc2O)Nc2ccccc21 (centres undefined) | inconclusive: -10.2% | – |
| Cc1cc(NC(=O)c2cccc(COc3ccc(Br)cc3)c2)no1 | – | inconclusive: 29.1 µM [falling, single point] |
| CCOc1ccccc1-n1nnnc1SCC(=O)O | inconclusive: 2.8% | – |
| O=C(/C=C/c1ccncc1)c1ccc(NC(=O)c2ccccc2F)cc1 | – | inconclusive: 29.1 µM [cytotoxic, single point] |
| O=C(COC(=O)Cc1ccccc1F)NCCc1ccccc1 | inconclusive: 3.29% | – |
| CC(=O)Nc1nc2ccccc2n1CCOc1ccccc1Cl | inconclusive: -18.7% | – |
| Cc1ccc([N+](=O)[O-])cc1-c1[nH]c(-c2ccc(O)c(O)c2)nc1-c1ccccc1 | inactive: -14.5% | – |
| Nc1nc2nn(-c3ccccc3)nc2c(=O)[nH]1 | – | inconclusive: 7.94 µM [falling, partial curve] |
| CCC1(C)Cc2ccccc2-c2nc(NN)[nH]c(=O)c21 (centres undefined) | inconclusive: 3.88% | – |
| CCOC(=O)c1c(NC(=O)C2C3C=CC(C3)C2C(=O)O)sc2c1CC(C)(C)OC2 (centres undefined) | inconclusive: 5.98% | – |
| Cn1c(CNC(=O)C(Cc2ccccc2)NC(=O)c2ccccc2)cc(=O)n(C)c1=O (centres undefined) | inactive: 4.96% | – |
| CC(c1ccccc1)c1nnc(NC(=O)Nc2ccccc2F)s1 (centres undefined) | inactive: 8.25% | – |
| O=C(NCc1ccccc1Cl)c1cnc2n(c1=O)CCS2 | inconclusive: 7.1% | – |
| COc1ccc(O)c(/C=N/NC(=S)Nc2cccc(S(=O)(=O)N(C)C)c2)c1 | – | inconclusive: 25.9 µM [falling, single point] |
| COc1cc(C(=O)Nc2cc(Cl)ccc2-n2cncn2)ccc1OC(F)F | inconclusive: 5.34% | – |
| O=C(O)c1nc(NCCc2ccccc2)ncc1Cl | inactive: 7.65% | – |
| COc1ccc(CCNC(=O)c2ccc3c(=O)n4c(nc3c2)CCC4)cc1OC | inconclusive: 6.44% | – |
| CN(C)c1c(-c2ccccc2)cc(-c2ccccc2)[nH]c1=O | inconclusive: 6.29% | – |
| O=C(Nc1nc(-c2ccccn2)cs1)c1cc2ccccc2o1 | inconclusive: -29.9% | – |
| CCCCCC(C)NC(=S)NC(=O)c1cc(S(=O)(=O)N2CCOCC2)ccc1C (centres undefined) | inconclusive: 6.49% | – |
| O=C(O)c1ccccc1C(=O)Nc1ccc(-c2csc(-c3ccccc3)n2)cc1 | inconclusive: 13.9% | – |
| Nc1c(N(CCC2=CCCCC2)C(=O)Cc2ccc(F)cc2)c(=O)[nH]c(=O)n1Cc1ccccc1 | inactive: -0.0202% | – |

Complete entries, quoted from the list. Values in the order: activity change, negative = inhibition	Potency
CN(C)c1c(-c2ccccc2)cc(-c2ccccc2)[nH]c1=O as listed: inconclusive: 6.29%	–
Nc1nc2nn(-c3ccccc3)nc2c(=O)[nH]1 as listed: –	inconclusive: 7.94 µM [falling, partial curve]
O=C1NC(c2ccccc2O)Nc2ccccc21 (centres undefined) as listed: inconclusive: -10.2%	–
Cc1ccc([N+](=O)[O-])cc1-c1[nH]c(-c2ccc(O)c(O)c2)nc1-c1ccccc1 as listed: inactive: -14.5%	–

Reference: PubChem BioAssay AID493014 (National Center for Advancing Translational Sciences (NCATS), 2011)
